Reference: article PMC10163288
The list shows a part of the results.

B1: il10ra_site1_sap_14_mot_HHH_b2_05207_000000229_0001_1_19_H_._HHH_b1_00008_af2_0001_0000200016_0000001_0_0001 (protein)
chain: SSSSDEEKEVALLVARASAKAARLGDHETERKLFELLVRAYAKNDPELFEEAEELAREILGSSSS
B2: il10ra_site1_sap_28_mot_HHH_b1_01513_af2_000000021_0001_1_16_H_._HHH_b1_03264_0001_0000300020_0000001_0_0001_af2pred_0001 (protein)
chain: SSSSDEEEKNLEAALRLAEQAYENGNPEHAKRLLRSALRLAERLNDEELFERLQELLEELSSSSS
B3: il10ra_site1_sap_26_mot_HHH_b1_03333_000000091_0001_1_17_H_._HHH_b2_04966_0001_0000200016_0000001_0_0001 (protein)
chain: SSSSSQEEELIEFNKKSLEQVLEYGNERIVRLLLEAIKLLAERTNDEELKEFVEQVERELSSSSS
B4: il10ra_site1_sap_14_mot_HHH_b1_02062_000000185_0001_1_20_H_._HHH_b2_07342_0001_0000400030_0000001_0_0001 (protein)
chain: SLMEAVWELAKKADSPELLELLALLIHAIFRGDEELVERVLELLEQAREEGDPRYLEEAEELLRK
B5: il10ra_site1_sap_16_mot_c338a8cd76c26928f5bff51e2e01ebb4_0001_000000083_0001_17_32_H_._HHH_b1_07556_af2_0001_0000300011_0000001_0_0001 (protein)
chain: SSSSSDLREAARRAQELIEELIQRGDQEALQELWRLFVELARTGDPELAEELREFLEEYSSSSSS
B6: il10ra_site1_normal_mot_HHH_b2_00475_000000107_0001_44_57_H_._HHH_b1_04179_0001_0000100010_0000001_0 (protein)
chain: SSSSDEEERRIIQLAFRATRLAARGNPEEARKVIEEAEELAKELGDEELEEYLRILKHFVNSSSS
B7: il10ra_site1_normal_mot_7f9b3cf633cfd27bca007b62ade1be3b_0001_1_000000138_0001_17_32_H_._HHH_b2_04541_0002_0000300021_0000001_0_af2pred_0001 (protein)
chain: SSSSDRERSLELLLRAAERLLEEGDEHRLRAVLREAKILAKILGDEEVLRRLEELEELLNSSSSS
B8: il10ra_site1_normal_mot_HHH_b1_04693_000000238_0001_19_36_H_._HHH_b1_03982_0001_0000100014_0000001_0 (protein)
chain: SSSSQEAYEIVERAIKEAIEALRNGNPEEAREIVEEAIRLIEELGNDSLVATLEVLLRLINSSSS
B9: il10ra_site1_sap_15_mot_HHH_b1_06816_000000239_0001_1_19_H_._HHH_b1_05776_af2_0001_0000100010_0000001_0_0001_af2pred_dldesign_0_af2pred (protein)
chain: SSSSSPIVEEAKKLFEEAKKLLEEGKPEEAQKKLEEIVELAKKHECIEVAKIANELLKLGSSSSS
B10: il10ra_site1_sap_19_mot_HHH_b1_07743_af2_000000164_0001_42_55_H_._HHH_b1_07378_af2_0001_0000500019_0000001_0_0001 (protein)
chain: SSSDEEYNERVVRLSLEAFHLALRGNPEEARRVLEEALELAEEGNNERLFEQIEDLLETLGSSSS
B11: il10ra_site1_normal_mot_HHH_b2_06767_000000020_0001_41_56_H_._HHH_b2_06012_0001_0000200016_0000002_0_af2pred_0001 (protein)
chain: SSSSSVHEAAQLLLRVARALKEGDEELLEELRKELEELLKKLDDERARLAVRAALAAIKNFSSSS
B12: il10ra_site1_sap_25_mot_HHH_b2_01235_000000294_0001_1_18_H_._HHH_b2_00232_0001_0000100011_0000001_0_0001_af2pred_dldesign_0_af2pred (protein)
chain: SSSSSDEEKRKEVEALLEEARTLTDGEAFKKALTKAIELAAELGDEELQQRILEVNRSYISSSSS
B13: il10ra_site1_sap_24_mot_HHH_b1_00999_000000080_0001_41_55_H_._HHH_b1_05694_af2_0001_0000300017_0000001_0_0001_af2pred_dldesign_0_af2pred (protein)
chain: SSSSDPQRVVELIHEANRLVDEGRLDEAERLLEEALRLARAADDAELAAAVEKALAFVRSLSSSS
B14: il10ra_site1_sap_19_mot_65b8060e20531850bca9f2e11f97d954_0001_af2_000000137_0001_17_31_H_._HHH_b1_04841_0001_0000400042_0000001_1_0001 (protein)
chain: SSSSSSDELEELLEEAKELLERGDPREANKVLQKAVRLAHQNSDEETLQELWRLALESSSSSSSS
B15: il10ra_site1_sap_17_mot_HHH_b2_02934_af2_000000003_0001_43_57_H_._HHH_b1_01533_0001_0000300012_0000001_0_0001 (protein)
chain: SSSSDELTREVYELSRKAVELDSDGNEEEARKVIKEAEEIAEEINNPLLEHQLRFLEEILNSSSS
B16: il10ra_site1_sap_17_mot_HHH_b2_05972_af2_000000208_0001_1_16_H_._HHH_b2_02653_af2_0001_0000300007_0000001_0_0001_af2pred_0001 (protein)
chain: SSSSSSEAFREILELIREALEIDDPEEARELIEQARELAEENNDELLRRLIELVERELNSSSSSS
B17: il10ra_site1_sap_17_mot_HHH_b1_06914_000000280_0001_1_18_H_._HHH_b2_08155_0001_0000100009_0000001_0_0001 (protein)
chain: SSSSDEANERVWELLREALHIDDPEEAREVVEEAAEIAEERNNRVLLHNIRFLLRQLEKGSSSSS
B18: il10ra_site1_sap_25_mot_HHH_b2_05761_af2_000000185_0001_1_18_H_._HHH_b1_05595_af2_0001_0000200006_0000001_0_0001 (protein)
chain: SSSSDEDERYVELSLRFAEWLLKEGDPEAAKRILEAAREIAERANNEELREELEELLEKIGSSSS
B19: il10ra_site1_normal_mot_49468d6c54d8157f7969f91124172a68_0001_af2_000000173_0001_37_51_H_._HHH_b1_04887_af2_0001_0000100004_0000002_0_af2pred_dldesign_0_af2pred (protein)
chain: SSSSSAERAAAVHKAEVAFELAKASNNPNALAALRDYVTELYEKTGDPRLKEILAELDKALSSSS
B20: il10ra_site1_normal_mot_HHH_b1_02397_af2_000000085_0001_39_57_H_._HHH_b1_07134_af2_0001_0000100009_0000001_0 (protein)
chain: SSSSDEEQEELEELVRLLEELLKEGDQERFARTAQRALRIAFRLRDPEALQALWELVKKFASSSS
B21: il10ra_site1_sap_23_mot_HHH_b2_06321_af2_000000133_0001_42_55_H_._HHH_b2_05427_af2_0001_0000400018_0000001_0_0001 (protein)
chain: SSSSDELREEVFELSEEAAKLHHEGDEEEAERVLEEAEELAREGGDRLFLMQVEFILRKISSSSS
B22: il10ra_site1_sap_16_mot_HHH_b2_06979_000000158_0001_42_57_H_._HHH_b1_00759_0001_0000400027_0000001_0_0001 (protein)
chain: SSSSSSTKREEIYELLQEAAEIDDPEERERLLERAEELAEEAGDRVLLIIARFIRERGSSSSSSS
B23: il10ra_site1_sap_23_mot_HHH_b1_06174_af2_000000107_0001_40_57_H_._HHH_b1_02529_0001_0000200009_0000001_0_0001 (protein)
chain: DHLFVWQLRFAVERGNLEAVLEKLAEMAKRAGDPERLKAVEIAIELLRKGVPPEEVVEIFEELLR
B24: il10ra_site1_normal_mot_HHH_b2_00837_af2_000000287_0001_40_54_H_._HHH_b1_03367_af2_0001_0000100002_0000002_0 (protein)
chain: SSSSDEEEEELEKLLEELEKLVEEGDPERVARVAAEIARLAFRLNDPEVLRRAWELVRAVKSSSS
B25: il10ra_site1_sap_22_mot_HHH_b1_02397_af2_000000085_0001_39_57_H_._HHH_b2_02441_0001_0000100003_0000001_0_0001_af2pred_0001 (protein)
chain: SSSSDEERVLRLLIEALKLAFNGDPEEAEKLLEEAERIAEESNDERLEEAIEQAANIVKSASSSS
B26: il10ra_site1_sap_26_mot_HHH_b1_02665_000000293_0001_1_18_H_._HHH_b1_05149_af2_0001_0000500014_0000001_1_0001_af2pred_0001 (protein)
chain: SSPEEAEKLLREAEELAEEQNDERAREAVEILKRLLKVAKELNDEFAVELVERSARIILENLQRS
B27: il10ra_site1_normal_mot_HHH_b1_03333_000000091_0001_1_17_H_._HHH_b2_03837_af2_0001_0000500026_0000001_0 (protein)
chain: SSSSDFYEEVKELIEKAAQLQREGDEEKVEELLERLEELAEEFNSPVVEASVRALRLALRSSSSS
B28: il10ra_site1_normal_mot_HHH_b2_03568_000000058_0001_1_19_H_._HHH_b2_07674_0001_0000200018_0000002_0 (protein)
chain: SSSSSDESYEIVRKAIEEAIELEREGNPEEAKKVLEEALKELEELNDEVTRFSLELLLRQLSSSS
B29: il10ra_site1_normal_mot_HHH_b1_08697_af2_000000298_0001_1_18_H_._HHH_b2_02739_0001_0000300015_0000001_0 (protein)
chain: SSSSDKERRAARFWLRLFKQATDPRELKLIFRALENLAKVANDPEIEEILEEVEELLEQLSSSSS
B30: il10ra_site1_sap_20_mot_HHH_b1_06837_000000150_0001_20_37_H_._HHH_b1_02062_0001_0000500034_0000001_0_0001 (protein)
chain: SSSSDEEVRERAREIYERLQELIEEGDEERVQKLMQELVELANKGNDIEAARLATEIVKLSSSSS
B31: il10ra_site1_normal_mot_HHH_b2_05548_000000224_0001_41_54_H_._HHH_b1_07835_0001_0000100002_0000002_0_af2pred_0001 (protein)
chain: SSSSSDEEVEQLLEEAERLLKEGNPEEAAKVVAKAAELALELGNVELIKLVVELLRLIANSSSSS
B32: il10ra_site1_normal_mot_HHH_b2_08186_000000021_0001_43_56_H_._HHH_b1_06983_af2_0001_0000300013_0000001_0 (protein)
chain: SSSSDLEERVEELLERIEELLEEGNPREAVQLIQEAVRLAFEANNAELLRRLWELLREAAGSSSS
B33: il10ra_site1_sap_16_mot_HHH_b2_03328_af2_000000127_0001_1_19_H_._HHH_b2_02243_0001_0000100001_0000001_0_0001 (protein)
chain: SSSSSTQELYELLRRIVELDHEGDEEEARKVLEEAEELAEELGNVAIKMQLEFLRKILEKSSSSS
B34: il10ra_site1_sap_19_mot_HHH_b1_07743_af2_000000164_0001_42_55_H_._HHH_eva_0456_af2_0001_0000400013_0000001_0_0001_af2pred_0001 (protein)
chain: SSSSDMAEREHERAEQNLRHLVEAGDPEKVKLFVKLVKSILEELGNPELVEELEKLLEELNSSSS
B35: il10ra_site1_normal_mot_HHH_b1_05326_000000242_0001_1_20_H_._HHH_b2_06441_af2_0001_0000200013_0000001_0 (protein)
chain: SSSSSDEKEEALRLSLEAFRLLLRGDREQAEEVLKEALRLAEELGNERLARVIRDLLQAISSSSS
B36: il10ra_site1_normal_mot_HHH_b2_05686_000000041_0001_1_18_H_._HHH_b1_03447_0001_0000100002_0000003_0 (protein)
chain: SSSSTTAERSIEFALELAEELLELGNPEAAELILRQAREAAKAAENPELLRELEELLEEIRSSSS
B37: il10ra_site1_sap_18_mot_HHH_b2_08144_af2_000000046_0001_38_52_H_._HHH_b2_06268_0001_0000100001_0000003_0_0001 (protein)
chain: SSSSSEAFELARRAIEELIELAEEGDPEKVEELAEEVAERLEELGNQLAARQIKYLAKVELSSSS

Each binder was assayed against il10ra, Q13651 (assay: yeast display titration).

Apparent Kd, inactive:
B1 no binding seen
B2 no binding seen
B3 no binding seen
B4 no binding seen
B5 no binding seen
B6 no binding seen
B7 no binding seen
B8 no binding seen
B9 no binding seen
B10 no binding seen
B11 no binding seen
B12 no binding seen
B13 no binding seen
B14 no binding seen
B15 no binding seen
B16 no binding seen
B17 no binding seen
B18 no binding seen
B19 no binding seen
B20 no binding seen
B21 no binding seen
B22 no binding seen
B23 no binding seen
B24 no binding seen
B25 no binding seen
B26 no binding seen
B27 no binding seen
B28 no binding seen
B29 no binding seen
B30 no binding seen
B31 no binding seen
B32 no binding seen
B33 no binding seen
B34 no binding seen
B35 no binding seen
B36 no binding seen
B37 no binding seen

2 entries drawn at random from the list so far, as already listed:
Apparent Kd, inactive:
B13 no binding seen
B11 no binding seen
